From article PMC10150531
No constants are given. Whether binding was seen depends on the method and setting. In cells and extracts the contact can be indirect. These calls come from enrichment with a bait or labelling near it, and not all partners need be listed.

Amino acid sequences for entries named in this document (tags omitted).
UniProt Q9UGP8: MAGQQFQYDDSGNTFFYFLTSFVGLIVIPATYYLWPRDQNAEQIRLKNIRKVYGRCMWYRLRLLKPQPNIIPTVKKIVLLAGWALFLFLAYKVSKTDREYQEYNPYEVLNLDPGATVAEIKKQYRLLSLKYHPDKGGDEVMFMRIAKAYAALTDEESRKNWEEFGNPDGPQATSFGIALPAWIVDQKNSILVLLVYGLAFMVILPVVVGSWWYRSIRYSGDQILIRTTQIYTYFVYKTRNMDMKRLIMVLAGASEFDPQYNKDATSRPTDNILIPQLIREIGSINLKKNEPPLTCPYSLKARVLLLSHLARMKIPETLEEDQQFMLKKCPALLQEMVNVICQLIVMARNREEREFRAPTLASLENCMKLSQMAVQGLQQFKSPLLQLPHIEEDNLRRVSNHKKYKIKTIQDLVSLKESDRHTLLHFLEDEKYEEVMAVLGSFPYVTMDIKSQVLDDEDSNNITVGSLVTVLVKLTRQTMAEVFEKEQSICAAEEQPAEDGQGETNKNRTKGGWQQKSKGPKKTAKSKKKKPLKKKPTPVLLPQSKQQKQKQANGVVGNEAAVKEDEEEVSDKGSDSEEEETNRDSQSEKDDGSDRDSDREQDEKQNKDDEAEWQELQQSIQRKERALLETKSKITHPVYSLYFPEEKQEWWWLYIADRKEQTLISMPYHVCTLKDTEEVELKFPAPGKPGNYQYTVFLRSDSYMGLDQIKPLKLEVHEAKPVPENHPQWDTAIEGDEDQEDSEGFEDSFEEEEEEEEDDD
UniProt P53396: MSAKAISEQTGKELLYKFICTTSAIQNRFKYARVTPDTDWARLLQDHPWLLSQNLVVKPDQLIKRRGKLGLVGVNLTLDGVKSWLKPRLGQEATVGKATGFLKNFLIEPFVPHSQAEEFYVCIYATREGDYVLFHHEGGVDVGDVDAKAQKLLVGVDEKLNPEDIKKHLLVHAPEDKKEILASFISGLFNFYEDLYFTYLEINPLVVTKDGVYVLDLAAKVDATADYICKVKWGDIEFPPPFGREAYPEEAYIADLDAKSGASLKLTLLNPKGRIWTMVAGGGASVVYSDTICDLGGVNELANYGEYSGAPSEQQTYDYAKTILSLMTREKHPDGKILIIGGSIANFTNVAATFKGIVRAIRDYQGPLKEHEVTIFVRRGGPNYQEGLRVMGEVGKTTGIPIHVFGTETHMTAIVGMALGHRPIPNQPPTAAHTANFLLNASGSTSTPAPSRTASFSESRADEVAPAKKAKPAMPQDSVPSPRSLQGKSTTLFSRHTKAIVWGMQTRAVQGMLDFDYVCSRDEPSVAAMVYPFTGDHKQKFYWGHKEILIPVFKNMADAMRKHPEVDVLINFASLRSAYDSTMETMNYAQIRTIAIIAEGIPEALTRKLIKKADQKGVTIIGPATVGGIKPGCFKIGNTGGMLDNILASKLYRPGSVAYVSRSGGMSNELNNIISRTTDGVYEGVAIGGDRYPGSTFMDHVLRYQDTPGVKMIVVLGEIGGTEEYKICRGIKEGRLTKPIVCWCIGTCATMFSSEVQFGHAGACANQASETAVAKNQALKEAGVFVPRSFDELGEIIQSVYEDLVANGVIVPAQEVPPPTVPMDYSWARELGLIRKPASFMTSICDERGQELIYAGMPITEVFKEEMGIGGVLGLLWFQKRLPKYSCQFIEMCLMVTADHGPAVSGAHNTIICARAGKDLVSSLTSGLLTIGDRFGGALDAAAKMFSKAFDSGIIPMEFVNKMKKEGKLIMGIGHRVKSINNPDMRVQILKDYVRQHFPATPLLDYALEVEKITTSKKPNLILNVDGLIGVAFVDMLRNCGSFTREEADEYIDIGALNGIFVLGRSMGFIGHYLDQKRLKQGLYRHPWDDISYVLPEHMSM
UniProt P84022: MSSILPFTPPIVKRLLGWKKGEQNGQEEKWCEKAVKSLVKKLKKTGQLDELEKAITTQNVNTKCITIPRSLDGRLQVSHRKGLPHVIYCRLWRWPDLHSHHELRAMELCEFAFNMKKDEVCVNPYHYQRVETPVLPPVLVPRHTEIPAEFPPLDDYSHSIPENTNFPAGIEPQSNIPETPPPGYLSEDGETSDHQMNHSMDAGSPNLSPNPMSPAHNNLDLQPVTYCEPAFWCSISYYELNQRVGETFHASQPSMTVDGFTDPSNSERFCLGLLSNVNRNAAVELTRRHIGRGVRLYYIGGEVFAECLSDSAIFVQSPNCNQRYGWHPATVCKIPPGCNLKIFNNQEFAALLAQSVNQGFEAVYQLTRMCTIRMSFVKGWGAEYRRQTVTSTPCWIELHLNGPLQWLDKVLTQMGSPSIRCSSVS

Experiments:
[1] = biological target: SEC63 (human (endogenous in Huh7)) (UniProt Q9UGP8); assay: affinity purification with mass spectrometry; SEC63-interacting proteins upon ER stress identified by liquid chromatography-tandem mass spectrometry
[2] = biological target: Adenosine triphosphate (ATP)-citrate lyase (ACLY) (human (endogenous in Huh7)) (UniProt P53396); assay: affinity purification with mass spectrometry; Co-IP of ACLY followed by mass spectrometry; cells and antibody not named

Substance: SMAD3 (from UniProt P84022 1-425)
- binding [1]: binds

Substance: SEC63 (from UniProt Q9UGP8 1-760)
- binding [2]: binds
